The list shows a part of the results.
Assays:
Experiment in all cases: log2 fold change, soluble protein after heating vs DMSO (PISA); higher = thermal stabilisation; K562 cells, 10 uM, 30 min; active = over 0.2 and 3.5 SD of the protein, either way, in both replicates (recomputed)
[1] = compound: CS(=O)(=O)c1ccc(-c2cnc(N)c(C(=O)Nc3ccccc3)n2)cc1
In short: (§1)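 Soluble protein was quantified by TMTpro 16plex LC-MS/MS after channel sums were equalised. It was obtained as the supernatant after 21,000xg for 90 min from pooled aliquots of K562 cells (2×10^6 cells/mL, 10 μM compound, 30 min) heated for 3 min across 48°C-58°C and extracted in PBS with 0.5% NP-40 at 4°C. Thermal stability values are relative to control samples and come from duplicates. They are given as log2 fold changes.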

Amino acid sequences for entries named in this document (tags omitted). A change or cut given only in a name is not applied to a line headed by its entry.
UniProt P10620: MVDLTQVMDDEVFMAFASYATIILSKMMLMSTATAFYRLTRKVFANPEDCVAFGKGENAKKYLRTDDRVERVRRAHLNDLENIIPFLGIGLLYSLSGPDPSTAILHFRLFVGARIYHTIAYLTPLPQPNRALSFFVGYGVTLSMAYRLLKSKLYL
UniProt Q8NE86: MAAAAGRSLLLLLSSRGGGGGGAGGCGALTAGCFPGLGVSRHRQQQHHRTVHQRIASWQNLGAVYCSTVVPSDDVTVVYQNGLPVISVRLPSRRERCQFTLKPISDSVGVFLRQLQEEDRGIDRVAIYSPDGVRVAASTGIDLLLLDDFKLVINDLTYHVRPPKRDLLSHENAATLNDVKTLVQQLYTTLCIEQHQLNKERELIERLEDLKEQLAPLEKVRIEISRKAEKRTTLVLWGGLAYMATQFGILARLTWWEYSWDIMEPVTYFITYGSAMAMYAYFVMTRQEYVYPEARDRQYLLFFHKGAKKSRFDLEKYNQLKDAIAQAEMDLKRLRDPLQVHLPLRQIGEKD
UniProt Q15528: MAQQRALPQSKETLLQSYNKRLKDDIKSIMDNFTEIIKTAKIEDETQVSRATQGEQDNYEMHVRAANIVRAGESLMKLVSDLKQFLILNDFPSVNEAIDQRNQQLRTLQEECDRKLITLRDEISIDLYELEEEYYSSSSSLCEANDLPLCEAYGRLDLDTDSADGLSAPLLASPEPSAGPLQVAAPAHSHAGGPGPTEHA
UniProt Q9UBB5, whole entry, looked up: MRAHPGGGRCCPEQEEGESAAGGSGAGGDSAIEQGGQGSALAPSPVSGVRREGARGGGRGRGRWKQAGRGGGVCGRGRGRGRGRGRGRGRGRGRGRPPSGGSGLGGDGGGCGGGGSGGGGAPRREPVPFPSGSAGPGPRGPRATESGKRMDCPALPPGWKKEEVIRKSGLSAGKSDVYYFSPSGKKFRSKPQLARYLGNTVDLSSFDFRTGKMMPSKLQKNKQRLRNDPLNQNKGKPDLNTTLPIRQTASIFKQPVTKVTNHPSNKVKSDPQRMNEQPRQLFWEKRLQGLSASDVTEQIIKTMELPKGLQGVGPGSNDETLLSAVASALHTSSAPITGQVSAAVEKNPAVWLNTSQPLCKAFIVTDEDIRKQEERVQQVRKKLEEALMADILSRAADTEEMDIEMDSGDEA
UniProt O95140: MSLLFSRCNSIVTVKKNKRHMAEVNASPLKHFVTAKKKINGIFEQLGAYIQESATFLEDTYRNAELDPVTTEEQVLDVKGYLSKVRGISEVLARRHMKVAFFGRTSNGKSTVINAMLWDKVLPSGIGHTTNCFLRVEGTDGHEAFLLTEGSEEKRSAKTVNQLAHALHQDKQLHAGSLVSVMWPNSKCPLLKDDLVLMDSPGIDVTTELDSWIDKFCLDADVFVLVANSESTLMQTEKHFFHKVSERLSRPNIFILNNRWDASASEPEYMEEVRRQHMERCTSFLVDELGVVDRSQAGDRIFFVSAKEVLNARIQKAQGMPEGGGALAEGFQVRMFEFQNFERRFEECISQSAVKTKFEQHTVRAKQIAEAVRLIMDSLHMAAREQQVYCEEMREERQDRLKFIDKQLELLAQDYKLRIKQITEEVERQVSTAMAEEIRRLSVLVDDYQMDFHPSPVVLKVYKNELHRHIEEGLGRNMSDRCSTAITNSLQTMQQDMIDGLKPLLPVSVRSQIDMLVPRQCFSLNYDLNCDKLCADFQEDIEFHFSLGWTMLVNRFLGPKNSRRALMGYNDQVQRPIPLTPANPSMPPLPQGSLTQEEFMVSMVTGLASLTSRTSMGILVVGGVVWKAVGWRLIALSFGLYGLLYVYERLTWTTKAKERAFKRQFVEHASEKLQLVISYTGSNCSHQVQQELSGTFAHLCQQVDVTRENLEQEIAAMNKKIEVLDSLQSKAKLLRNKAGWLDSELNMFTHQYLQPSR
UniProt O15021: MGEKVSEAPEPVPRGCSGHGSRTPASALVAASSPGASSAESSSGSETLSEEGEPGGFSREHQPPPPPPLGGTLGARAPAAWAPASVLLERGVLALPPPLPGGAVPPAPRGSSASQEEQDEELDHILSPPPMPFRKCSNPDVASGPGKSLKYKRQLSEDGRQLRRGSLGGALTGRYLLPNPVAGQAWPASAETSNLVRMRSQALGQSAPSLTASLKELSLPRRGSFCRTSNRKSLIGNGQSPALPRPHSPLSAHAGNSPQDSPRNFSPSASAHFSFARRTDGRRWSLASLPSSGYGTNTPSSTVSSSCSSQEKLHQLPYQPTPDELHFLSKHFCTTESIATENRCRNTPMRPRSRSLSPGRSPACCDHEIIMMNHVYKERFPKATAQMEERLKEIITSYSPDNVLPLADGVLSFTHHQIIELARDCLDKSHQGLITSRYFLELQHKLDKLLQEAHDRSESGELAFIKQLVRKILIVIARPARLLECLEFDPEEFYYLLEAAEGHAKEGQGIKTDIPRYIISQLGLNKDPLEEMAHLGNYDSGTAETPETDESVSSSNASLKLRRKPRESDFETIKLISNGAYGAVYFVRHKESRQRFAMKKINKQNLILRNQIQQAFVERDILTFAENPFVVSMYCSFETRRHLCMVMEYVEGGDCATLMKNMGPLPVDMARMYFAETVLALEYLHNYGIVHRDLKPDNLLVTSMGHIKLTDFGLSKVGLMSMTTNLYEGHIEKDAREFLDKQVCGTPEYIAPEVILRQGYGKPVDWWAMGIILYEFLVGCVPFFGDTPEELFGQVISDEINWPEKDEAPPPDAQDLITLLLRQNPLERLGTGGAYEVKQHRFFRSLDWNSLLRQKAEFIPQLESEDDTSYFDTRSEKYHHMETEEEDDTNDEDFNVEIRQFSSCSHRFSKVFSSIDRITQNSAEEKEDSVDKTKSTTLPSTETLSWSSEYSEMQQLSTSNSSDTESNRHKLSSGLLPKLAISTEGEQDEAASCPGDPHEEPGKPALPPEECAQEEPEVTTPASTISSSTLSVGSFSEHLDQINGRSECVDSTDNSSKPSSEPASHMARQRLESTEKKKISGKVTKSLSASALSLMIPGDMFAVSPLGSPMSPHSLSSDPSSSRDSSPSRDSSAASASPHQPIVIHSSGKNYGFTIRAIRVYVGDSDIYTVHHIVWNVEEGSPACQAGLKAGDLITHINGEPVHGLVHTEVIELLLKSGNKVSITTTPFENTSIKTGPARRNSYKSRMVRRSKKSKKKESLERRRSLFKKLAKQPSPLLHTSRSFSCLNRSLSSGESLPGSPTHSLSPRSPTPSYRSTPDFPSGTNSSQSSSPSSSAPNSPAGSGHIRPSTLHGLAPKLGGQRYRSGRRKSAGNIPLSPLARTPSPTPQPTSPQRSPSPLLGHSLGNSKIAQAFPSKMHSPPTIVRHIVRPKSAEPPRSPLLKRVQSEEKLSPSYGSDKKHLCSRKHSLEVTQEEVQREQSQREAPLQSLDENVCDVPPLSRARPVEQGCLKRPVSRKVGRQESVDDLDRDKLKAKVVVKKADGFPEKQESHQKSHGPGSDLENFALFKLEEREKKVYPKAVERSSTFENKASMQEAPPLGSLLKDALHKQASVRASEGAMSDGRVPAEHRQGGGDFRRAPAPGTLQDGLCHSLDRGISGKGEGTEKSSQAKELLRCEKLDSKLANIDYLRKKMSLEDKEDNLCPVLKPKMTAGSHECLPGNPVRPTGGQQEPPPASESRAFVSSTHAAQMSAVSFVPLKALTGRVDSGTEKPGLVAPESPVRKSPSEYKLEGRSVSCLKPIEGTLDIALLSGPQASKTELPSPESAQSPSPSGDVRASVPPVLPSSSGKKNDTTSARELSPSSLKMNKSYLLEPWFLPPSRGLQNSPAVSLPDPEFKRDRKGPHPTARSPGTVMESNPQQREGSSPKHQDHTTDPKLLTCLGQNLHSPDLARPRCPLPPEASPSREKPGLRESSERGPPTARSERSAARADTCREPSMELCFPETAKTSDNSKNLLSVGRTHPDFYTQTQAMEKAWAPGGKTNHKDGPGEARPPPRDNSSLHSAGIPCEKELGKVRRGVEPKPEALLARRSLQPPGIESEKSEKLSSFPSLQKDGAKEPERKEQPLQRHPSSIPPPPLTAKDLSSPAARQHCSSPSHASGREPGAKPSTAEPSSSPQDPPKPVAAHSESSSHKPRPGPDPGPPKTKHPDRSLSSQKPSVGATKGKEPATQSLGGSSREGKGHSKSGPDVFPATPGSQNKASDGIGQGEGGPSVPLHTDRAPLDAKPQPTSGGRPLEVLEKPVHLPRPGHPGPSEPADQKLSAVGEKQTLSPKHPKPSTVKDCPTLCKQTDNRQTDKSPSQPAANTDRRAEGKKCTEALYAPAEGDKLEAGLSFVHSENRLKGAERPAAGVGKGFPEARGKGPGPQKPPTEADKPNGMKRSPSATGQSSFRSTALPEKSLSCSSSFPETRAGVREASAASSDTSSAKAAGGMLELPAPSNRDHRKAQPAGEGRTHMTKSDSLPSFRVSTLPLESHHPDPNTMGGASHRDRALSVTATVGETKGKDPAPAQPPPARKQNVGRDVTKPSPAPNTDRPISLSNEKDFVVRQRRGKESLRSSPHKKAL
UniProt O95568: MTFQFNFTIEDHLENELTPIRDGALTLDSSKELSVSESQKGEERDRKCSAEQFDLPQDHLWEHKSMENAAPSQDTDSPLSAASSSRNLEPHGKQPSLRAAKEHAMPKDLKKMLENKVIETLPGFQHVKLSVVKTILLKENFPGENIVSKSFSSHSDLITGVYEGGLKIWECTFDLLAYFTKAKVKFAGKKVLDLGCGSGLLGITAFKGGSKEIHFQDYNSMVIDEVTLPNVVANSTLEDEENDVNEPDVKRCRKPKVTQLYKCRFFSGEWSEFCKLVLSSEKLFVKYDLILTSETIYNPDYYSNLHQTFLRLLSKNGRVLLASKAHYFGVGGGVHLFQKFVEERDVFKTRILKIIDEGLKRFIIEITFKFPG
UniProt O14880: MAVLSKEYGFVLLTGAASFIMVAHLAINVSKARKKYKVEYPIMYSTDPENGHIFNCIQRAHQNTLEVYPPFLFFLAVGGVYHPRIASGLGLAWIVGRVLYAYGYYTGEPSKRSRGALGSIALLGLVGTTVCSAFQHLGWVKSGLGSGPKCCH
UniProt Q96PC5: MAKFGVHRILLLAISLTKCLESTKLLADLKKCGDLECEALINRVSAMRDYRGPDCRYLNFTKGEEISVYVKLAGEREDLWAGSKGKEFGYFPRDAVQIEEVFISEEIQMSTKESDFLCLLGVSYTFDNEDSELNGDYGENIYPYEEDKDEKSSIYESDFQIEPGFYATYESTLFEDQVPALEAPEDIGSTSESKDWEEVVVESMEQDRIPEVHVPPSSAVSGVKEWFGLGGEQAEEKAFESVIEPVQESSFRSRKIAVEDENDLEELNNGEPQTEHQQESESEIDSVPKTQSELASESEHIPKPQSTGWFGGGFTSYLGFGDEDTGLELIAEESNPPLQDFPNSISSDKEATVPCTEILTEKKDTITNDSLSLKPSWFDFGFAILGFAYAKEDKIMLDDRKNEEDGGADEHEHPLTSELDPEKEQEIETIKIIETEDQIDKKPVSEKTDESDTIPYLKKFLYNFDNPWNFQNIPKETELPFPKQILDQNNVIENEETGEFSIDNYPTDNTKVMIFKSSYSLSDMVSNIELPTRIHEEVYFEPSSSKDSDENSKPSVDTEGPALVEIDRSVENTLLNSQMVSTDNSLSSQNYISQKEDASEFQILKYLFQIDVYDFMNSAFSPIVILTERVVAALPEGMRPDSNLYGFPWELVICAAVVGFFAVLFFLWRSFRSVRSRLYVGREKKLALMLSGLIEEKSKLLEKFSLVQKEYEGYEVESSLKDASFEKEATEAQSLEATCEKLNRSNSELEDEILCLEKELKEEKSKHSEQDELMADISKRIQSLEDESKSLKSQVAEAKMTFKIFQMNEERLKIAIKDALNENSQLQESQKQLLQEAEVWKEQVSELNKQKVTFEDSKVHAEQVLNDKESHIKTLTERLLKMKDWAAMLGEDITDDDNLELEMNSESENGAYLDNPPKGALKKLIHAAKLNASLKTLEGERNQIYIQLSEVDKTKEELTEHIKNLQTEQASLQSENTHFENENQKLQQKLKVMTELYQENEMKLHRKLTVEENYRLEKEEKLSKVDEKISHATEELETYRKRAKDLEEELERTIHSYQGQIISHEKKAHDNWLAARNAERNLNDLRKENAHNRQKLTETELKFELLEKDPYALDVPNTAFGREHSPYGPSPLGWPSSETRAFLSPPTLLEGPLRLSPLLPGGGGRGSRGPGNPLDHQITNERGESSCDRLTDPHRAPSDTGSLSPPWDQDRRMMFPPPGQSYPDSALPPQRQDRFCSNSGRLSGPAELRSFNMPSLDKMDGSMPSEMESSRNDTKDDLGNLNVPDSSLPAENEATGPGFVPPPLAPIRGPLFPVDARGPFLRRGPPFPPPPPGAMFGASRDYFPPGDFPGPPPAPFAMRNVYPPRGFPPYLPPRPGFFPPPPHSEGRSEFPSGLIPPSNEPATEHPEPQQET

crizotinib = compound: C[C@@H](Oc1cc(-c2cnn(C3CCNCC3)c2)cnc1N)c1c(Cl)ccc(F)c1Cl [crizotinib]
In short: as §1

[2] = compound: C[C@@H]1COCCN1C2=NC(=NC(=C2)C3(CC3)S(=O)(=O)C)C4=C5C=CNC5=CC=C4
In short: as §1

[3] = compound: C[C@H](C1=CC=C(C=C1)C(=O)NC2=C3C=CNC3=NC=C2)N
In short: as §1

gandotinib = compound: Cc1cc(Nc2cc(CN3CCOCC3)c3nc(C)c(Cc4ccc(Cl)cc4F)n3n2)n[nH]1 [gandotinib]
In short: as §1

[4] = compound: Cc1cc(SCc2sc(-c3ccc(C(F)(F)F)cc3)nc2C)ccc1OCC(=O)O
In short: as §1

doramapimod = compound: Cc1ccc(-n2nc(C(C)(C)C)cc2NC(=O)Nc2ccc(OCCN3CCOCC3)c3ccccc23)cc1 [doramapimod]
In short: as §1

ispinesib = compound: Cc1ccc(C(=O)N(CCCN)[C@@H](c2nc3cc(Cl)ccc3c(=O)n2Cc2ccccc2)C(C)C)cc1 [ispinesib]
In short: as §1

duvelisib = compound: C[C@H](Nc1ncnc2nc[nH]c12)c1cc2cccc(Cl)c2c(=O)n1-c1ccccc1 [duvelisib]
In short: as §1

tozasertib = compound: Cc1cc(Nc2cc(N3CCN(C)CC3)nc(Sc3ccc(NC(=O)C4CC4)cc3)n2)n[nH]1 [tozasertib]
In short: as §1

Measured: log2 fold change

MDN1 (UniProt Q9NU22)
inactive: [1] -0.072 | crizotinib -0.135 | [2] 0.094 | [3] 0.002 | gandotinib -0.156 | [4] 0.063 | doramapimod -0.005 | ispinesib -0.117

MGST1 (UniProt P10620)
active: [3] -0.257
inactive: [1] -0.006 | crizotinib 0.152 | [2] -0.01 | gandotinib 0.044 | [4] -0.123 | doramapimod -0.053 | ispinesib -0.027

MFSD5 isoform 2 (UniProt Q6N075)
inactive: [1] 0.069 | crizotinib -0.039 | [2] -0.04 | [3] -0.046 | gandotinib -0.045 | [4] -0.004 | doramapimod 0.004 | ispinesib 0.051

MCU (UniProt Q8NE86)
inactive: [1] -0.013 | crizotinib -0.159 | [2] 0.015 | [3] 0.001 | gandotinib -0.172 | [4] 0.054 | doramapimod -0.013 | ispinesib -0.1

MED22 (UniProt Q15528)
inactive: [1] 0.013 | crizotinib -0.082 | [2] 0.027 | [3] 0.027 | [4] 0.049 | doramapimod 0.027 | ispinesib -0.098

Random excerpt: two records from the list, in no set order.
MCU (UniProt Q8NE86)
inactive: [1] -0.013 | crizotinib -0.159 | [2] 0.015 | [3] 0.001 | gandotinib -0.172 | [4] 0.054 | doramapimod -0.013 | ispinesib -0.1

MFSD5 isoform 2 (UniProt Q6N075)
inactive: [1] 0.069 | crizotinib -0.039 | [2] -0.04 | [3] -0.046 | gandotinib -0.045 | [4] -0.004 | doramapimod 0.004 | ispinesib 0.051

The list continues:

MEPCE (UniProt Q7L2J0)
inactive: [1] -0.006 | crizotinib 0.111 | [2] 0.03 | [3] -0.005 | gandotinib -0.051 | [4] 0.04 | doramapimod -0.22 | ispinesib -0.065

MED12 isoform 2 (UniProt Q93074)
inactive: [1] -0.088 | crizotinib -0.088 | [2] 0.207 | gandotinib -0.009 | [4] 0.048 | doramapimod 0.095 | ispinesib -0.117

MASTL (UniProt Q96GX5)
inactive: [1] -0.058 | crizotinib 0.092 | [2] 0.179 | [3] 0.046 | [4] -0.12 | doramapimod -0.075 | ispinesib 0.099

MATR3 (UniProt P43243)
inactive: [1] -0.104 | crizotinib 0.011 | [2] -0.003 | duvelisib 0.227 | gandotinib 0.139 | tozasertib 0.037 | [4] 0.019 | doramapimod 0.12 | ispinesib -0.428

MED6 (UniProt O75586)
inactive: [1] -0.178 | crizotinib -0.469 | [2] -0.296 | [3] -0.143 | gandotinib -0.087 | doramapimod -0.135

MBNL1 isoform 5 (UniProt Q9NR56)
inactive: [1] 0.003 | crizotinib -0.005 | [2] -0.187 | tozasertib 0.03 | doramapimod -0.073 | ispinesib 0.106

MBD2 (UniProt Q9UBB5)
inactive: [1] -0.082 | [2] -0.066 | [3] 0.169 | duvelisib -0.086 | gandotinib 0.037 | tozasertib 0.058 | [4] 0.043 | ispinesib 0.072

MFN2 (UniProt O95140)
inactive: [1] 0.028 | crizotinib -0.109 | [2] 0 | [3] 0.022 | gandotinib 0.028 | [4] 0.041 | doramapimod 0.039 | ispinesib -0.208

MAST4 (UniProt O15021)
inactive: [1] -0.041 | crizotinib -0.188 | [2] 0.064 | [3] -0.114 | gandotinib -0.301 | [4] 0.053 | doramapimod -0.088 | ispinesib 0.007

MED16 (UniProt Q9Y2X0)
inactive: [1] -0.04 | crizotinib -0.072 | [2] -0.071 | [3] 0.06 | gandotinib -0.098 | [4] 0.063 | doramapimod 0.08 | ispinesib -0.097

METTL18 (UniProt O95568)
inactive: [1] 0.003 | crizotinib -0.043 | [2] 0.053 | [3] -0.012 | gandotinib -0.045 | [4] 0.012 | doramapimod -0.001 | ispinesib 0.004

MEAK7 (UniProt Q6P9B6)
inactive: [1] -0.005 | [2] 0.049 | [3] 0.005 | gandotinib -0.224 | [4] 0.024 | doramapimod 0.031 | ispinesib -0.139
active: crizotinib -0.259

MED7 (UniProt O43513)
inactive: [1] -0.03 | crizotinib 0.11 | [2] -0.031 | [3] -0.081 | [4] 0.049 | doramapimod -0.199 | ispinesib 0.017

METAP1D (UniProt Q6UB28)
inactive: [1] -0.009 | crizotinib -0.041 | [2] 0.147 | [3] -0.037 | [4] 0.01 | doramapimod -0.091 | ispinesib -0.032

ME2 (UniProt P23368)
inactive: [1] -0.027 | [2] -0.048 | [3] 0.009 | gandotinib -0.016 | [4] -0.002 | doramapimod -0.016
active: crizotinib 0.282 | ispinesib 0.334

MGST3 (UniProt O14880)
inactive: [1] 0.058 | crizotinib 0.119 | [2] -0.013 | [3] -0.075 | gandotinib -0.006 | [4] -0.054 | doramapimod -0.031 | ispinesib 0.03

METTL1 (UniProt Q9UBP6)
inactive: [1] 0.04 | [2] 0.049 | [3] -0.042 | duvelisib -0.008 | gandotinib -0.013 | tozasertib -0.034 | [4] -0.054 | doramapimod -0.011 | ispinesib 0.108

MED17 (UniProt Q9NVC6)
inactive: [1] -0.02 | crizotinib -0.004 | [2] 0.028 | [3] 0.119 | gandotinib 0.007 | [4] 0.109 | doramapimod 0.022 | ispinesib -0.049

MIA2 (UniProt Q96PC5)
inactive: [1] 0.001 | crizotinib 0.015 | [2] 0.006 | [3] -0.059 | gandotinib -0.034 | [4] 0.044 | doramapimod -0.01 | ispinesib 0.011

MFF (UniProt Q9GZY8)
inactive: [1] -0.03 | crizotinib -0.051 | [2] -0.052 | [3] -0.023 | gandotinib -0.036 | [4] -0.085 | doramapimod -0.018 | ispinesib -0.088

MCL1 (UniProt Q07820)
inactive: [1] -0.079 | crizotinib 0.043 | [2] -0.158 | [3] -0.006 | gandotinib 0.042 | [4] 0.01 | doramapimod 0.109 | ispinesib -0.441

MED26 (UniProt O95402)
inactive: [1] 0.113 | crizotinib -0.095 | [3] -0.185 | duvelisib 0.013 | gandotinib -0.149 | [4] -0.052 | doramapimod 0.135 | ispinesib -0.004

MCUR1 (UniProt Q96AQ8)
inactive: [1] 0.041 | crizotinib 0.082 | [2] 0.1 | [3] 0.044 | gandotinib -0.021 | [4] -0.017 | doramapimod -0.002 | ispinesib 0.255

MCEE (UniProt Q96PE7)
inactive: [1] -0.038 | [2] 0.085 | [3] -0.073 | duvelisib 0.026 | gandotinib -0.182 | tozasertib -0.049 | [4] -0.043 | ispinesib -0.085

Reference: the supplement of paper PMC10849652
